Assay results as given in publication PMC9249204.
These are yes or no findings as the source states them, for the method shown. Binding seen in cells or lysates may run through a third protein.

The chains behind the UniProt entries cited, without tags or fusion partners.
UniProt Q96PE2: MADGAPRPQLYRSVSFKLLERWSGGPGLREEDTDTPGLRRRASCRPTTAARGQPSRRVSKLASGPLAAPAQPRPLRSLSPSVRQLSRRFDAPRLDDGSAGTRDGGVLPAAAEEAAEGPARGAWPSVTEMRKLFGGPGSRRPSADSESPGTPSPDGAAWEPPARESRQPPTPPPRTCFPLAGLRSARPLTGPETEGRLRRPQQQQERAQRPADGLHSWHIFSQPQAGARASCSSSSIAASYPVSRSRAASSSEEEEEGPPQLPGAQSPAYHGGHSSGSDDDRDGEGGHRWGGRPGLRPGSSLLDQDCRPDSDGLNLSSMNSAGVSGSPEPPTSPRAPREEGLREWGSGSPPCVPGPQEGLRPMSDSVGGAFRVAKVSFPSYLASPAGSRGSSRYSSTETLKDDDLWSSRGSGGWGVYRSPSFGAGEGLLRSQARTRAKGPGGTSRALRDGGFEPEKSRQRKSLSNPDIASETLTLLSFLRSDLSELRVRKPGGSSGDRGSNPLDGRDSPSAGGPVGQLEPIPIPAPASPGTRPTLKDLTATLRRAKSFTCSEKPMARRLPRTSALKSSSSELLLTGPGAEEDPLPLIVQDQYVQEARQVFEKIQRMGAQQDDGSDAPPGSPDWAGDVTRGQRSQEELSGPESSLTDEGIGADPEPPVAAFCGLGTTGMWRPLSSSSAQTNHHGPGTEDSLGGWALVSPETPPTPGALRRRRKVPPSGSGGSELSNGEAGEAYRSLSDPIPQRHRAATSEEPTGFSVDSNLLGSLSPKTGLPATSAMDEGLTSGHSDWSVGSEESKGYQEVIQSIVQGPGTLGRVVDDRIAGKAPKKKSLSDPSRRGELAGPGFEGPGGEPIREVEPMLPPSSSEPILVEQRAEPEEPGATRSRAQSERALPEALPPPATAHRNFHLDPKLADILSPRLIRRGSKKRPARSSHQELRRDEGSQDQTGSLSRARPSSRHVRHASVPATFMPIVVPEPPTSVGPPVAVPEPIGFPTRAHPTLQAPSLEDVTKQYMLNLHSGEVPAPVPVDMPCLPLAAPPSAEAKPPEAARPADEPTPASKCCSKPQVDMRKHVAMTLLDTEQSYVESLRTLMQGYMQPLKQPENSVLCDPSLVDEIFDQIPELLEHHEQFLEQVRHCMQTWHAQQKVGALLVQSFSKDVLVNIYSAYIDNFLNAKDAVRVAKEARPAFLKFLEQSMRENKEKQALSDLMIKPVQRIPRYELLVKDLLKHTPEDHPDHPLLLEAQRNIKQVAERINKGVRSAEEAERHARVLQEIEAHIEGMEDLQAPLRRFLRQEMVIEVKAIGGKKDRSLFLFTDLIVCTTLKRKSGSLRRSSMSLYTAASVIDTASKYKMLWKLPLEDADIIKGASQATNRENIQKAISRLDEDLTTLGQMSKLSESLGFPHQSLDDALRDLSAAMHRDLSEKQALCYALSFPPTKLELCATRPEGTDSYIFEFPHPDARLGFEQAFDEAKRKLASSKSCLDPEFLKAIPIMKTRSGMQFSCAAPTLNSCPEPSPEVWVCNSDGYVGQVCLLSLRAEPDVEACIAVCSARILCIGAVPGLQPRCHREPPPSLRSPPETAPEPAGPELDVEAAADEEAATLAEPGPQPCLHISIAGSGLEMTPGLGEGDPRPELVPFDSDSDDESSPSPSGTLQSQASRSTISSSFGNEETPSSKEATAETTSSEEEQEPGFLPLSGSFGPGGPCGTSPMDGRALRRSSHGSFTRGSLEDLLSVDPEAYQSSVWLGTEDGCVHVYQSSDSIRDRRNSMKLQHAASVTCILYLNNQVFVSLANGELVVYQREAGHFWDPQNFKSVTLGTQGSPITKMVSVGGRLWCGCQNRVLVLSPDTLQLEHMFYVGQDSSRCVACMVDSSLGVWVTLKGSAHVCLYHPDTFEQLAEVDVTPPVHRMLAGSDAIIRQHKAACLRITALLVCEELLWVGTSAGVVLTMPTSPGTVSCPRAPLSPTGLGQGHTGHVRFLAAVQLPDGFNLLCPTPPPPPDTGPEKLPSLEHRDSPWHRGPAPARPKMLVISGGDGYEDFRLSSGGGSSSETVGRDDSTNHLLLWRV
UniProt Q14980: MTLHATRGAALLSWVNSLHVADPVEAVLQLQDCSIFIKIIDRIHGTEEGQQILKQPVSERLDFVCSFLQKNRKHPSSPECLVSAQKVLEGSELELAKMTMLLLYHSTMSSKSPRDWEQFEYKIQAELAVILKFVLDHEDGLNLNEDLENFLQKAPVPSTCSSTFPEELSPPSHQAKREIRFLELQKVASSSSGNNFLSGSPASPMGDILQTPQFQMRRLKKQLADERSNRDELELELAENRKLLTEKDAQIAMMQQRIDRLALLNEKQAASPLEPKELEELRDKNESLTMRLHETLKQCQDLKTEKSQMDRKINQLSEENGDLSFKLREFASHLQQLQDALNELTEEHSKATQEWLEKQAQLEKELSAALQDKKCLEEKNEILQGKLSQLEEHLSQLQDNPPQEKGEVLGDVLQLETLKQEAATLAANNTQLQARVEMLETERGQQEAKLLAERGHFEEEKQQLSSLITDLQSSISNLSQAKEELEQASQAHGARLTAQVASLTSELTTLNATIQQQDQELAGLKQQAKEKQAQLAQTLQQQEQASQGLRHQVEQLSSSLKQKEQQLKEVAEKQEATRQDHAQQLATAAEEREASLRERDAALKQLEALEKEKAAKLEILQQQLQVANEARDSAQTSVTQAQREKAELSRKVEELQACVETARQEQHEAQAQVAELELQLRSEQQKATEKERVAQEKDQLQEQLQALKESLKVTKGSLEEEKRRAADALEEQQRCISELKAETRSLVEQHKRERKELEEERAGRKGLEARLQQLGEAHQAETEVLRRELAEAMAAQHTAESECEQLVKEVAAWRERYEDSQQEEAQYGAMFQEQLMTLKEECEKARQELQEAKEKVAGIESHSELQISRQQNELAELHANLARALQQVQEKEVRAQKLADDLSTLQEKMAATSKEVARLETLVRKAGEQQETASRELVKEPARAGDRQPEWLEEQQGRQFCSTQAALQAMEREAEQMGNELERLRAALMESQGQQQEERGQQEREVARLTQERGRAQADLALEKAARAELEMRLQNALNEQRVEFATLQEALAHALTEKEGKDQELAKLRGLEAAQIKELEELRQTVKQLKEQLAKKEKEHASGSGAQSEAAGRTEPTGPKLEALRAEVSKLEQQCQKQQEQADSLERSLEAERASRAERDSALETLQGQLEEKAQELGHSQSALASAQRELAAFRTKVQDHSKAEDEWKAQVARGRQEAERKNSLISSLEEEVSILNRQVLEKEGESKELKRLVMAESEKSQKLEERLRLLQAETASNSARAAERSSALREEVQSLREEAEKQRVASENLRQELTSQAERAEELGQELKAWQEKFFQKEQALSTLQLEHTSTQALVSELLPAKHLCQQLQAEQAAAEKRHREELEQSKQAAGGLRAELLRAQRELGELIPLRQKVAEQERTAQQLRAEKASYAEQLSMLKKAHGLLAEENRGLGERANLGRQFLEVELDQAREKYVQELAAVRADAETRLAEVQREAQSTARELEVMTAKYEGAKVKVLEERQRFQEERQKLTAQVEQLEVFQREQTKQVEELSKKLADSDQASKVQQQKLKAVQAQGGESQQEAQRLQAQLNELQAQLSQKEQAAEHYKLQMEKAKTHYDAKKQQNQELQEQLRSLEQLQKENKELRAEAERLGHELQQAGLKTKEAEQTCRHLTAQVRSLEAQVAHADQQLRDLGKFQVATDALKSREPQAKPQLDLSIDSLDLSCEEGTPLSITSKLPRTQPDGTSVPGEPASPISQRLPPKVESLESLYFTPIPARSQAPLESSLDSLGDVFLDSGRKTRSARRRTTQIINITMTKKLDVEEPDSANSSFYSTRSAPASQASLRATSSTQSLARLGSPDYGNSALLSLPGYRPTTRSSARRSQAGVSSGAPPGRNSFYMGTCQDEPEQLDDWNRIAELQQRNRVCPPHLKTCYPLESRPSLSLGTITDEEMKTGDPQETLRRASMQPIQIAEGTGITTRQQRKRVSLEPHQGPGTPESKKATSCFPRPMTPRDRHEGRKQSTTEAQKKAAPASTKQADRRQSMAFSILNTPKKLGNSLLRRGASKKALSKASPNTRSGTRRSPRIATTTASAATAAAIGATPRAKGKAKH

Target: GFP-tagged TEM4 (ARHGEF17, Rho guanine nucleotide exchange factor 17) (human) (UniProt Q96PE2)
Test: co-IP; anti-GFP immunoprecipitation from NP-40 whole cell lysates of HEK-293T cells transiently expressing GFP or GFP-TEM4, treated with 15 nM Taxol to synchronise in mitosis; immunoblot for NuMA; duplicate immunoprecipitants

Nuclear Mitotic Apparatus Protein 1 (NuMA) (from UniProt Q14980 1-2115)
binding: no binding
